Results: patent US12497411B2, “Muscarinic acetylcholine receptor subtype 4 antagonists in the treatment of anemia” (COLD SPRING HARBOR LABORATORY, priority 2019, dated 2025)
For at least one compound, name, drawing or mass did not settle the structure.

System: Mouse BFU-Es
Assay: Primary mouse BFU-E culture assay (cell expansion)
Assay type: cell-based
Settings: 100 μM forskolin, day 10, vs untreated
Experimental: Primary mouse BFU-Es were isolated from mouse embryonic day 14.5 (E14.5) fetal liver and cultured in StemSpan serum-free expansion medium, and the numbers of cells formed were counted during culture. BFU-Es were infected with either viruses encoding control shRNA or viruses encoding shRNAs targeting Chrm4, and numbers of GFP+ cells formed during culture were counted. DMSO or 25 mg/kg oxyphenonium bromide was intraperitoneally injected into the hemolysis mouse model, Mx1-cre Srsf2 P95H/WT MDS mouse model, and aging mouse model. Complete blood count (CBC) was performed after compound injection. CREB ChIP-Seq was performed on BFU-Es after culture with 100 μM oxyphenonium bromide for 45 minutes. RNA-Seq was performed in BFU-Es after being cultured with DMSO or oxyphenonium bromide for 3 days.
BFU-Es were isolated from mouse embryonic day 14.5 fetal liver using fluorescence-activated cell sorting (FACS) method previously described (Flygare et al., Blood 117, 3435-3444 (2011)). […]
BFU-Es were isolated from mouse embryonic day 14.5 fetal liver using fluorescence-activated cell sorting (FACS) method. […] Numbers of cell formed were counted during in vitro culture.
FIGS. 7 and 8 show the results of the primary BFU-E culture assay. […] Highly purified BFU-Es were isolated as lin-Ter-119-CD16/CD32-Sca-1-CD41-c-Kit+CD71/Cd24a^10% low population using the fluorescence-activated cell sorting (FACS) method. […]

## C=C[C@@]1(C)CC(=O)[C@]2(O)[C@@]3(C)[C@@H](O)CCC(C)(C)[C@@H]3[C@H](O)[C@H](OC(C)=O)[C@@]2(C)O1 [forskolin]
  fold cell expansion: significantly higher fold cell expansion
